From patent US10213482B2, “Methods of treating chronic inflammatory diseases” (Centre National de la Recherche Scientifique, priority 2014, dated 2019)
Several values for one entry are separate records, joined by “and”; a condition that tells them apart may be missing. Equal values may be shown once. Part of at least one peptide drawing is inferred or uncertain, most often the ends. Square brackets hold non-standard residues; d marks the D form. Peptide text beside a SMILES is read from it. pS = N[C@@H](COP(=O)(O)O)C(=O)O

Experiments:
C57BL/6 mice [1] = experiment: K/B×N serum transfer arthritis model, curative protocol; format: in vivo, mouse
Balb/c mice = experiment: 31-day HDM-induced asthma model, BAL cell counts; format: in vivo, mouse
[2] = test system: peripheral T cells from lupus patients; conditions: ex vivo (Monneaux et al., 2005); cited from earlier work
[3] = test system: T cells from patients with other autoimmune diseases; conditions: ex vivo, n=27 patients (Monneaux et al., 2005); cited from earlier work
MRL/lpr B cells = conditions: cited from earlier work
C57BL/6 mice [4] = experiment: K/B×N serum transfer arthritis model, preventive protocol; format: in vivo, mouse
[5] = P140 i.v. 4 mg/kg day 25, HDM challenge
[6] = P140 i.v. 4 mg/kg day 25, saline challenge (chronic asthma)
[7] = chronic asthma, 4 mg/kg i.v. day 25, non-significant
[8] = chronic asthma, 4 mg/kg i.v. day 25, p<0.05

Which Weight gain (C57BL/6 mice [1]; between day 5 and the end of the study, curative protocol, controls 5%) does the source give for `CC[C@H](C)[C@H](NC(=O)[C@H](Cc1ccccc1)NC(=O)[C@H](C)NC(=O)[C@H](Cc1ccc(O)cc1)NC(=O)CNC(=O)[C@H](CCCNC(=N)N)NC(=O)[C@@H]1CCCN1C(=O)[C@H](CCCCN)NC(=O)CNC(=O)[C@H](COP(=O)(O)O)NC(=O)[C@H](CCCNC(=N)N)NC(=O)[C@H](CCCCN)NC(=O)[C@H](CO)NC(=O)[C@H](Cc1ccc(O)cc1)NC(=O)[C@@H](NC(=O)[C@H](CCSC)NC(=O)[C@H](Cc1c[nH]cn1)NC(=O)[C@@H](NC(=O)[C@@H](N)CCCNC(=N)N)[C@@H](C)CC)C(C)C)C(=O)N[C@@H](CCC(=O)O)C(=O)N[C@@H](Cc1ccc(O)cc1)C(=O)O` [Compound P140] (H-RIHMVYSKR[pS]GKPRGYAFIEY-OH) here?
Its Weight gain is 20%.

And the “Inflammation score per leg, maximum” value (C57BL/6 mice [1]; curative protocol, rear legs, no significant difference vs controls)?
The value was about 1.5.

What about the Weight loss (C57BL/6 mice [1]; day 2, curative protocol (P140 day 1 and day 4), NaCl 10%) of the same molecule?
The Weight loss was 15%.

What about the “Inflammatory cell recruitment in BAL” value (Balb/c mice; HDM-challenged mice vs solvent group) of the same molecule?
The value was “no effect”.

And the “B cells in BAL, individual mice” value (Balb/c mice; [5])?
Its value is 59 092 and 102 246 and 42 085 and 25 443 and 116 814 and 115 000 and 53 947 and 170 980.

And the “DCs in BAL, individual mice” value (Balb/c mice; [5])?
The value was 1 034 and 2 238 and 1 793 and 242 and 586 and 1 350 and 733 and 1 928.

And the “Eosinophils in BAL, individual mice” value (Balb/c mice; [5])?
Its value is 955 824 and 1 404 942 and 636 065 and 342 046 and 1 283 190 and 1 036 803 and 538 210 and 1 010 666.

And the “Macrophages in BAL, individual mice” value (Balb/c mice; [5])?
Its value is 58 705 and 118 771 and 314 326 and 126 002 and 34 364 and 38 709 and 29 121 and 73 491.

What about the “Neutrophils in BAL, individual mice” value (Balb/c mice; [5]) of the same molecule?
Its value is 606 700 and 510 027 and 500 004 and 147 616 and 371 317 and 487 119 and 284 503 and 24 426.

And the “T cells in BAL, individual mice” value (Balb/c mice; [5])?
Its value is 400 329 and 735 865 and 383 074 and 243 813 and 469 834 and 502 985 and 334 784 and 1 056 303.

And the “Total cells in BAL, individual mice” value (Balb/c mice; [5])?
Its value is 2140000 and 2992000 and 2190000 and 1010000 and 2310000 and 2220000 and 1270000 and 2410000.

And the “B cells in BAL, individual mice” value (Balb/c mice; [6])?
The value was 2 297 and 44 688 and 22 879 and 11 101 and 7 660.

What about the “DCs in BAL, individual mice” value (Balb/c mice; [6]) of the same molecule?
Its value is 0 and 484 and 461 and 319 and 160.

And the “Eosinophils in BAL, individual mice” value (Balb/c mice; [6])?
The value was 124 514 and 450 346 and 448 074 and 205 568 and 239 527.

What about the “Macrophages in BAL, individual mice” value (Balb/c mice; [6]) of the same molecule?
The value was 130 734 and 267 885 and 360 987 and 177 815 and 73 725.

And the “Neutrophils in BAL, individual mice” value (Balb/c mice; [6])?
Its value is 2 584 and 35 734 and 23 986 and 34 836 and 2 394.

What about the “T cells in BAL, individual mice” value (Balb/c mice; [6]) of the same molecule?
The value was 57 711 and 323 623 and 294 011 and 208 439 and 86 810.

And the “Total cells in BAL, individual mice” value (Balb/c mice; [6])?
Its value is 448000 and 1390000 and 1510000 and 815000 and 484000.

What about the “Number of B cells in BAL, change vs solvent group” value (Balb/c mice; [7]) of the same molecule?
Its value is −40%.

What about the “Number of eosinophils in BAL, change vs solvent group” value (Balb/c mice; [7]) of the same molecule?
Its value is −25%.

What about the “Increase of number of macrophages in BAL vs solvent group” value (Balb/c mice; [8]) of the same molecule?
Its value is 4.5 fold.

What about the “Number of neutrophils in BAL, change vs solvent group” value (Balb/c mice; [8]) of the same molecule?
The value was −71%.

And the “Proliferation of peripheral T cells” value [2]?
The value was “does not induce proliferation”.

What about the “Secretion of regulatory cytokine IL-10 in cell cultures” value [2] of the same molecule?
Its value is “high levels”.

What about the “Proliferation and IL-10 production” value [3] of the same molecule?
The value was “No proliferation and no IL-10 production”.

What about the “MHCII expression at the B cells surface” value (MRL/lpr B cells; MRL/lpr mice) of the same molecule?
The value was “significant decrease”.

What about the “Autophagy markers SQSTM1 and MAP1LC3 in MRL/lpr B cells” value (MRL/lpr B cells; after P140 treatment (Page et al., 2011)) of the same molecule?
The value was “accumulation”.

What about the “Expression of HSPA8 and LAMP-2A in MRL/lpr B cells” value (MRL/lpr B cells; after treating mice with P140 (Page et al., 2011; Macri et al., in press)) of the same molecule?
Its value is “down-regulated”.

What about the Weight loss (C57BL/6 mice [4]; preventive protocol (P140 day −7 and day −2), day 1 to day 7, controls 10%, not significant) of the same molecule?
The Weight loss was 5%.

What about the “Increase of the size of joints, right back legs” value (C57BL/6 mice [4]; preventive protocol, day 0 to day 7, controls about 22%, not significant) of the same molecule?
The value was “around 12%”.

And the “Increase in the size of the joint, left hind paws” value (C57BL/6 mice [4]; preventive protocol, day 0 to day 7, controls about 30%, not significant)?
The value was “about 15%”.

What about the “General inflammation score, maximum” value (C57BL/6 mice [4]; preventive protocol, sum of four legs, controls around 7, p=0.0156) of the same molecule?
Its value is at most 5.

And the “Increase in the size of articulation, left front leg” value (C57BL/6 mice [4]; preventive protocol, controls 45%, P=0.0397)?
Its value is 20%.

And the “Swelling in the joints of right front leg” value (C57BL/6 mice [4]; preventive protocol, controls nearly 45%, p=0.0069)?
Its value is “+20%”.
